Test results: publication PMC7717712, “The effects of cardiac drugs on human erythrocyte carbonic anhydrase I and II isozymes” (Journal of Enzyme Inhibition and Medicinal Chemistry, 2020)

The chains behind the UniProt entries cited, without tags or fusion partners. Where a name states a change or a piece, a line headed by the entry shows the natural chain unless it says otherwise.
UniProt P00915: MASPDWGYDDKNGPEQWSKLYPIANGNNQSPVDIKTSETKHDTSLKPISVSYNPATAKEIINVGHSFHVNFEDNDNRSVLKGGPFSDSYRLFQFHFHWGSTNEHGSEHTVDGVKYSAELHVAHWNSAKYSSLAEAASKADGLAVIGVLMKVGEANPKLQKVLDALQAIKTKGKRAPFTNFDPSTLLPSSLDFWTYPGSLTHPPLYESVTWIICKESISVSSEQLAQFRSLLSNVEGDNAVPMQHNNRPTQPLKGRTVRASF

Key:
Assay type in all cases: biochemical
[1] = molecular target: T1, human carbonic anhydrase I (hCA I) (Homo sapiens, UniProt P00915); assay: CO2 hydratase activity assay (Maren method), hCA I; details: enzyme purified from human erythrocytes
T1 construct: from tissue
Description: (§1) Blood samples (25 ml) from healthy human volunteers were collected. They were centrifuged at 1000g for 20 min at 4 °C, and the supernatant was removed. The packed erythrocytes were washed three times with 0.9% NaCl and then were hemolyzed in cold water. The pH of the hemolysate was adjusted to 8.5 with the solid Tris base. The 25-ml hemolysate was applied to an affinity column containing y Sepharose 4B-ethylene diamine-4-isothiocyanato-benzenesulfonamide[14]. CA isozymes were then eluted with 0.1 M NaCl/25 mM Na2HPO4 (pH 6.3) and 0.1 M CH3COONa/0.5 M NaClO4 (pH 5.6), which recovered hCA I and II, respectively.
(§2) CA activity was measured by the Maren method based on the determination of the time required for the pH to decrease from 10.0 to 7.4 due to CO2 hydration. The assay solution was 0.5 M Na2CO3/0.1 M NaHCO3 (pH 10.0), and phenol red was added as the pH indicator. Carbon dioxide-hydratase activity was calculated in enzyme units (EU) with the following equation: t0 – tc/tc, where t0 and tc are the times for the pH change of the nonenzymatic and the enzymatic reactions, respectively.
(§3) The drugs were triturated in a porcelain mortar pestle. Stock solutions of both drugs were prepared in dimethyl sulfoxide (DMSO). […] The duration (in seconds) of the colour change from red to yellow in solution was measured in a 10-ml glass tube with a diameter of 1 cm. […]

[2] = molecular target: T2, human carbonic anhydrase II (hCA II) (Homo sapiens, UniProt P00918); assay: CO2 hydratase activity assay (Maren method), hCA II; details: enzyme purified from human erythrocytes
T2 construct: from tissue
Description: as §1, §2, §3

[3] = molecular target: T1, human carbonic anhydrase I (hCA I); assay: Esterase activity assay (4-nitrophenyl-acetate), hCA I; details: esterase method, 348 nm, 25 °C
Description: (§4) Blood samples (25 ml) from healthy human volunteers were collected. They were centrifuged at 1000g for 20 min at 4 °C, and the supernatant was removed. The packed erythrocytes were washed three times with 0.9% NaCl and then were hemolyzed in cold water. The pH of the hemolysate was adjusted to 8.5 with the solid Tris base. The 25-ml hemolysate was applied to an affinity column containing y Sepharose 4B-ethylene diamine-4-isothiocyanato-benzenesulfonamide[14].
(§5) The inhibitory effects of the drugs on enzyme activities were tested under in vitro conditions.

[4] = molecular target: T2, human carbonic anhydrase II (hCA II); assay: Esterase activity assay (4-nitrophenyl-acetate), hCA II; details: esterase method, 348 nm, 25 °C
Description: as §4, §5

COC(=O)C1=C(C)NC(C)=C(C(=O)OC)C1c1ccccc1[N+](=O)[O-] [Nifedipine]
IC50 [1]: 77.9 µM | IC50 [2]: 103 µM | IC50 [3]: 42.2 µM | IC50 [4]: 50.6 µM
